To fix the notation:
B1: Bud31 (protein, UniProt Q6PGH1 1-144)
chain: MPKVKRSRKAPPDGWELIEPTLDELDQKMREAETEPHEGKRKVESLWPIFRIHHQKTRYIFDLFYKRKAISRELYEYCIKEGYADKNLIAKWKKQGYENLCCLRCIQTRDTNFGTNCICRVPKSKLEVGRIIECTHCGCRGCSG
B2: Baz1b (protein, UniProt Q9Z277 1-1479)
chain: MAPLLGRKPFPLVKPLPGEEPLFTIPHTQEAFRTREEYEARLERYSERIWTCKSTGSSQLTHKEAWEEEQEVAELLKEEFPNWYEKLVLEMVHHNTASLEKLVDSAWLEIMTKYAVGEECDFEVGKEKMLKVKIVKIHPLEKVDEEAVEKKSDGACDSPSSDKENSSQMAQDLQKKETVVKEDEGRRESINDRARRSPRKLPTSLKKGERKWAPPKFLPHKYDVKLQNEDKIISNVPADSLIRTERPPNKEILRYFIRHNALRAGTGENAPWVVEDELVKKYSLPSKFSDFLLDPYKYMTLNPSTKRRNTGSPDRKPSKKPKRDSSSLSSPLNPKLWCHVHLEKSLNGPPLKVKNSKNSKSPEEHLEGVMKIMSPNNNKLHSFHIPKKGPAAKKPGKHSDKPLKAKGRGKGILNGQKSTGNSKSPSKCVKTPKTKMKQMTLLDMAKGTQKMTRTPRSSGGVPRSSGKPHKHLPPAALHLIAYYKENKDKEDKKSALSCVISKTARLLSNEDRARLPEELRALVQKRYELLEHKKRWASMSEEQRKEYLKKKRQELKERLREKAKERREREMLERLEKQKRFEDQELGGRNLPAFRLVDTPEGLPNTLFGDVALVVEFLSCYSGLLLPDAQYPITAVSLMEALSADKGGFLYLNRVLVILLQTLLQDEIAEDYGELGMKLSEIPLTLHSVSELVRLCLRRCDVQEDSEGSETDDNKDSTPFEDNEVQDEFLEKLETSEFFELTSEEKLRILTALCHRILMTYSVQDHMETRQQVSAELWKERLAVLKEENDKKRAEKQKRKEMEARNKENGKEENVLGKVDRKKEIVKIEQQVEVEADDMISAVKSRRLLSMQAKRKREIQERETKVRLEREAEEERMRKHKAAAEKAFQEGIAKAKLVLRRTPIGTDRNHNRYWLFSNEVPGLFIEKGWVHNSIDYRFKHHRKDHSNLPDDDYCPRSKKANLGKNASVNAHHGPALEAVETTVPKQGQNLWFLCDSQKELDELLSCLHPQGIRESQLKERLEKRYQEITHSIYLARKPNLGLKSCDGNQELLNFLRSDLIEVATRLQKGGLGYMEGTSEFEARVISLEKLKDFGECVIALQASVIKKFLQGFMAPKQKKRKLQSEDSTKSEEVDEEKKMVEEAKVASALEKWKTAIREAQTFSRMHVLLGMLDACIKWDMSAENARCKVCRKKGEDDKLILCDECNKAFHLFCLRPALYEVPDGEWQCPACQPPTARRNSRGRNYTEESTSEGSEGDESGEEEEEEEEEEEEEEDYEVAGLRLRPRKTIRGKQSVIPAARPGRPPGKKSHPARRSRPKDDPEVDDLVLQTKRISRRQSLELQKCEDILHKLVKYRFSWPFREPVTRDEAEDYYDVIEHPMDFQTIQNKCSCGNYRSVQEFLTDMKQVFANAELYNCRGSHVLSCMEKTEQCLLALLQKHLPGHPYVRRKRRKFPDRLADDEGDSDSESVGQSRGRRQKK
B3: Znf280d (protein, UniProt Q68FE8 1-974)
chain: MVTTYIKSDLQLDGRQFFQPKDNLKMAELFMECEEEELEPWQKKVKEVEEDDDDEPIFVAEIASSKPAISNILNRVNPSSHSRGIKNGILNRGFTASFKPTSQRCLNSASNPVAALPVNFHPESRSSDSSVIVQPFSKPGYVTNSPRVLSNNSSELLFDLTQDTGLSHYQGGPTLSIAGLNETSFLSKRPSGSDISSVNPKKPKPSENTSGIDASSVISSEKSPSVISLQVVPSQGANCSSSQSKNGTTFPRACPKCDIHFNLLDPLKNHMTYCCPDMINNFLGLTKADNLNSANEAKTLESEKGKLIMLVNDFYYGKHEGDVLEEQKTHTTFKCFSCLKVLKNNIRFMNHMKHHLELEKQSSESWEKHTTCQHCYRQFPTPFQLQCHIESTHTPHEFSTICKICELSFETEQILLQHMKDNHKPGEMPYICQVCNYRSSLFSEVESHFRTSHENTKNLLCPFCLKVIKIATPYMHHYMKHQKKGIHRCTKCRLQFLTCKEKMDHKTQHHRTFVKPKQLEGLPPGTKVTIRASVGPLQSGSSVTPSISPSTSTLQLSPPEPDNVTAKNHVKLTTSTPNTTISDPSKANETKSNGSKSKNKSKVSNMQKKQSTLSSSNKKSKVNTALRNLRLRRGVHECIECSSEVKDFANHFPTYVHCSFCRYNTSCSKAYVNHMMSFHSNRPSKRYCIFKKHSENLRGISLVCLNCDFLTDVSGLDNMATHLSQHETHSCRVLVEQVSVCIPTSERLSEIKTEAPTKGQEPVSKETARHSRAEGEPGASHSGSKQDKVPSSEEGTGCDASVCEAAAATHCEKDVTVSDTENVSSSKNILSHDPDVGTDTMEKEEKTHHACQEMELKVDQSSESTNPTEAELSSETRQGLQLTSGDVGIDQFLRQGDEPKSVNSDASDPGSVRLEPLTPSEVLEYEATEILHDGDDPSANTSDTVSDQTGGSPGGSNPCRAETAVDLADGEERS
B4: Nanog (protein, UniProt Q80Z64 1-305)
chain: MSVGLPGPHSLPSSEEASNSGNASSMPAVFHPENYSCLQGSATEMLCTEAASPRPSSEDLPLQGSPDSSTSPKQKLSSPEADKGPEEEENKVLARKQKMRTVFSQAQLCALKDRFQKQKYLSLQQMQELSSILNLSYKQVKTWFQNQRMKCKRWQKNQWLKTSNGLIQKGSAPVEYPSIHCSYPQGYLVNASGSLSMWGSQTWTNPTWSSQTWTNPTWNNQTWTNPTWSSQAWTAQSWNGQPWNAAPLHNFGEDFLQPYVQLQQNFSASDLEVNLEATRESHAHFSTPQALELFLNYSVTPPGEI

Chains of the proteins cited; added tags and fusions are not shown.
UniProt Q91ZW3: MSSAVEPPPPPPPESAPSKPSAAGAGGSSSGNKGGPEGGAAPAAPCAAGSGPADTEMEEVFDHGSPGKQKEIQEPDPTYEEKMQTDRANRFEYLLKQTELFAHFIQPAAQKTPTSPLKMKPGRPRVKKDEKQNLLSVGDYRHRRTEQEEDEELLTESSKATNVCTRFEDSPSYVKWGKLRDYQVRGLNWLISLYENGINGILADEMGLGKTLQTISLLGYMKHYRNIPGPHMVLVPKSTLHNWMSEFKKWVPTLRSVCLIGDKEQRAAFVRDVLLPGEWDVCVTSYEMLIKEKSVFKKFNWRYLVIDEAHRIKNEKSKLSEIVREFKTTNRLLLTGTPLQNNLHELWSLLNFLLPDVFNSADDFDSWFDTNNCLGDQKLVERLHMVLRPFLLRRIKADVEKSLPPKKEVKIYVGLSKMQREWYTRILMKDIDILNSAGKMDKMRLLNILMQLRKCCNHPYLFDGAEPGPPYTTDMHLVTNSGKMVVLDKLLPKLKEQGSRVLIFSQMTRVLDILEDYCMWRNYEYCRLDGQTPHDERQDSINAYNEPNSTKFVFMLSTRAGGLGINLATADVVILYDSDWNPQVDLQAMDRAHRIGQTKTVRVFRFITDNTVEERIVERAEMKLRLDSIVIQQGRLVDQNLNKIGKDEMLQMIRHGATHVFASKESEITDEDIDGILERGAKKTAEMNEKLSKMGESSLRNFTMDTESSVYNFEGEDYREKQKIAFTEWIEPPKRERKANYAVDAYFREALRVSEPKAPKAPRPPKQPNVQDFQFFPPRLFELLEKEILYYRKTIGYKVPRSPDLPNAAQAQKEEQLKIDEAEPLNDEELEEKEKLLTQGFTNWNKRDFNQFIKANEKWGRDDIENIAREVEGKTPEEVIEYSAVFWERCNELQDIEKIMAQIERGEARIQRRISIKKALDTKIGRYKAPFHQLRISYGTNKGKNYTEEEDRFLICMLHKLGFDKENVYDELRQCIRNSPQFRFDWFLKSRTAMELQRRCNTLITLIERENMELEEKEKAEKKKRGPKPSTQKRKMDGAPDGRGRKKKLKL
UniProt Q61103: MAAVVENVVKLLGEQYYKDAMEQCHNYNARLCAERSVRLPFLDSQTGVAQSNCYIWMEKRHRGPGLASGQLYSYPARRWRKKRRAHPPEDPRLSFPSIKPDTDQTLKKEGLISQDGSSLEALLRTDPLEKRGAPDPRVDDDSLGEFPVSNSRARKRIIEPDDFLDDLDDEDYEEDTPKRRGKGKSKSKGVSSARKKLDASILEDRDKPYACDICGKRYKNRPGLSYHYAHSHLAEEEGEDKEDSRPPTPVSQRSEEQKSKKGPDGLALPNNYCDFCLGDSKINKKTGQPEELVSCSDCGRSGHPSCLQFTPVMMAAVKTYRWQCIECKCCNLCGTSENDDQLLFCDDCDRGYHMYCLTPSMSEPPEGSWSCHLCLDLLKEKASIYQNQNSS
UniProt A2AUY4: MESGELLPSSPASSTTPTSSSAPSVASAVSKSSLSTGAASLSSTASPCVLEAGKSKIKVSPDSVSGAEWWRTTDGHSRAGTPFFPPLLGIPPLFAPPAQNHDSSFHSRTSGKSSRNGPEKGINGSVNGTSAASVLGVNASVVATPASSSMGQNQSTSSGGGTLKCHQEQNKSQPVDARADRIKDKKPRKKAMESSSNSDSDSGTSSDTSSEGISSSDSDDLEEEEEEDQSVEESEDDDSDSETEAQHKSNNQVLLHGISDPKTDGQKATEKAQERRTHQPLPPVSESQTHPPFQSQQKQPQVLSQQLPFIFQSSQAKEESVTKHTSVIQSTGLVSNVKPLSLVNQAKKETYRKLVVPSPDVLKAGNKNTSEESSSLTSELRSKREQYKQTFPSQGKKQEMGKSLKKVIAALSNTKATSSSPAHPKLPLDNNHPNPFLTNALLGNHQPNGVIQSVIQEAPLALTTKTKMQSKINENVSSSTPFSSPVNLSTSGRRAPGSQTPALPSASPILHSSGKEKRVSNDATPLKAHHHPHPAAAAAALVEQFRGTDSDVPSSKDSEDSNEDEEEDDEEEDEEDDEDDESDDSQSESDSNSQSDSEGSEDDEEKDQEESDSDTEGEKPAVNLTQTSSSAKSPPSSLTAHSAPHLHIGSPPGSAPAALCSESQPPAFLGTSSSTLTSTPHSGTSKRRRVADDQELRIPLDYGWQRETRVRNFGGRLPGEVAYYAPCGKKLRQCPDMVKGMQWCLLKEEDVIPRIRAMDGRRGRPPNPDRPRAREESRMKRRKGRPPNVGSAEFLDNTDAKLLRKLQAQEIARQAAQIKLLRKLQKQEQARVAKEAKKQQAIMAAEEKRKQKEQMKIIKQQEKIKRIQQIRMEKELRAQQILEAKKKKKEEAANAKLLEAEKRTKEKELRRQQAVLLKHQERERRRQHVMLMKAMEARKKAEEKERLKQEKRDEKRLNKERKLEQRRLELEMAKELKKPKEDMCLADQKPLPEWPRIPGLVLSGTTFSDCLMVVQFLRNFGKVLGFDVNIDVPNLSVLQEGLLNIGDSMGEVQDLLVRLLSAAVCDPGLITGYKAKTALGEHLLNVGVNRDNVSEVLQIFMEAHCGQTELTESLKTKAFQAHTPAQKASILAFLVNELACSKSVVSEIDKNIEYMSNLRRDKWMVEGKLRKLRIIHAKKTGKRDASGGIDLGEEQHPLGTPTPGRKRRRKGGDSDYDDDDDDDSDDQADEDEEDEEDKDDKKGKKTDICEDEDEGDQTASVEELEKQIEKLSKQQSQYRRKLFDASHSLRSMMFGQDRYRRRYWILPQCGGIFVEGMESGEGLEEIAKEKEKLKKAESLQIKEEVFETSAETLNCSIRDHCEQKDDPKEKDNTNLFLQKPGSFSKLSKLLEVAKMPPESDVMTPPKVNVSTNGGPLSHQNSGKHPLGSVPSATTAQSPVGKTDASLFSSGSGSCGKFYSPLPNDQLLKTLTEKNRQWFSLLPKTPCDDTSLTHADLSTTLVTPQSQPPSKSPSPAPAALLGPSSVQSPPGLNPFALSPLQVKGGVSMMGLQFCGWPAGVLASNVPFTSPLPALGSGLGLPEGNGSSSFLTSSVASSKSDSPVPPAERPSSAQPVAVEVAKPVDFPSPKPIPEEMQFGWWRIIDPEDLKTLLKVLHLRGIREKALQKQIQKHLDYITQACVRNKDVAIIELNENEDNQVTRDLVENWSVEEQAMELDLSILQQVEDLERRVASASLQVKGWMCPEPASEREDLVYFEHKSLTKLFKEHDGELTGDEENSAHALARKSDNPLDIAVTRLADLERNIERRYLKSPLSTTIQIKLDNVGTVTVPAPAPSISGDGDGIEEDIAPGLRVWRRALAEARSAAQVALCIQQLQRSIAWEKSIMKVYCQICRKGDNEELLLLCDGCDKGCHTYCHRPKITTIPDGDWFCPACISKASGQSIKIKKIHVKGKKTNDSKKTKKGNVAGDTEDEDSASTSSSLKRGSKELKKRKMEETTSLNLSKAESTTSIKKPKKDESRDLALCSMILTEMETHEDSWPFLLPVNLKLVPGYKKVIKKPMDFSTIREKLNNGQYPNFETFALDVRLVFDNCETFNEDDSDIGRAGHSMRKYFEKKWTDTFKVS
UniProt E9Q2Z1: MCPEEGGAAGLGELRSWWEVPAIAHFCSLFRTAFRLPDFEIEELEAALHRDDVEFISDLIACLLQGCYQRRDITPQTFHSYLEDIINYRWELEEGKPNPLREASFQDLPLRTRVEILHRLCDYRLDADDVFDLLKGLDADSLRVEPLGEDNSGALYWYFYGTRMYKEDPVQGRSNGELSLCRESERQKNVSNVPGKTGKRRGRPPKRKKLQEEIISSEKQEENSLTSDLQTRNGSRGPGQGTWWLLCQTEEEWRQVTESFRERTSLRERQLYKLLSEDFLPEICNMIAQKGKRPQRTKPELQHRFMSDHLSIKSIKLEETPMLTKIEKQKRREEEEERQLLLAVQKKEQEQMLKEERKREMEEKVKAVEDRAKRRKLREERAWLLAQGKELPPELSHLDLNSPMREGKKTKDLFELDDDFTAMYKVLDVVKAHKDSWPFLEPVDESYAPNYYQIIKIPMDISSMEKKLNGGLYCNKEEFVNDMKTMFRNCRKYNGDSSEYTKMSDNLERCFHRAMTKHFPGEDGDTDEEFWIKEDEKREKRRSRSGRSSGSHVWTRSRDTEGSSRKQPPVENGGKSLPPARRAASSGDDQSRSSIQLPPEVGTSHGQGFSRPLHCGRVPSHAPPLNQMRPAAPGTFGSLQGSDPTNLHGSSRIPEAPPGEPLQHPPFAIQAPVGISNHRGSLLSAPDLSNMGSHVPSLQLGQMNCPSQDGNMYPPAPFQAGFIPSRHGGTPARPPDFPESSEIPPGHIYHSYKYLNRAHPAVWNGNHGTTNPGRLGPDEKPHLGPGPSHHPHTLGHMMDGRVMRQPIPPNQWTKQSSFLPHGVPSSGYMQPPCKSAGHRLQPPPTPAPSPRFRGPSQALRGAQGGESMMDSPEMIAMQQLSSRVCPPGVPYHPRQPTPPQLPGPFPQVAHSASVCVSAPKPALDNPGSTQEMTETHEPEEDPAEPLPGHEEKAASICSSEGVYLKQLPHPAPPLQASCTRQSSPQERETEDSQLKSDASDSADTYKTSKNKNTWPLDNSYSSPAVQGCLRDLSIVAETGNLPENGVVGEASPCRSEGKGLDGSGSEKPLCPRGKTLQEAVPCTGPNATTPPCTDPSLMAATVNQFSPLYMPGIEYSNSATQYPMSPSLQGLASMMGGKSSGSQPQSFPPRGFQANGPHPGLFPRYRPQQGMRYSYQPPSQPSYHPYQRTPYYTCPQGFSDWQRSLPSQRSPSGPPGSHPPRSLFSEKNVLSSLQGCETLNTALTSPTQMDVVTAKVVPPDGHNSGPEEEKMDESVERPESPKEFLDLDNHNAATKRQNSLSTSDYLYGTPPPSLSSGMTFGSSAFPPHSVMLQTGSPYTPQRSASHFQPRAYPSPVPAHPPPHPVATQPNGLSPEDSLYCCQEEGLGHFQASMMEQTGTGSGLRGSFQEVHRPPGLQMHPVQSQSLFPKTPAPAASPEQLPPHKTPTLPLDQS
UniProt O54941: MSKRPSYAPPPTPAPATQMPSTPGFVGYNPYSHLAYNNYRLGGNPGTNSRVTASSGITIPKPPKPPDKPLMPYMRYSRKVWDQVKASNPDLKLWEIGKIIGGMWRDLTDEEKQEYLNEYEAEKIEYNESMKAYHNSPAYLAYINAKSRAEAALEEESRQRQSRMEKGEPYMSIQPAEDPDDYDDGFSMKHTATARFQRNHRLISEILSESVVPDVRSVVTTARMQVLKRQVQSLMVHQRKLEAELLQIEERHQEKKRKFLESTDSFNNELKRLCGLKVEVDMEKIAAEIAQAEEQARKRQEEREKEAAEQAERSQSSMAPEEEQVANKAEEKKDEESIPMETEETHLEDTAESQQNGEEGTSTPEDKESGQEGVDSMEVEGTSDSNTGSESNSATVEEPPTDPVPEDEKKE

Drawing on PMC10838342, this text covers binding for ten molecules.

No constants are given. Whether binding was seen depends on the method and setting. Binding seen in cells or lysates may run through a third protein. Here binding means that the protein was enriched with, or labelled near, the bait; the list need not be complete.

The target in the first experiment is Smarca5 with endogenous GFP-3XFLAG tag (mouse) (UniProt Q91ZW3). As to the kind of experiment: affinity purification with mass spectrometry; benzonase-treated nuclear lysate of mouse ES cells on magnetic anti-FLAG M2 beads, 2 h at 4 °C; washes with 200 mM KCl, 0.25% Triton, 0.25% NP-40, 0.1% Na-deoxycholate buffer; three samples with flag-tagged Smarca5 against three with untagged WT Smarca5 as control; on-bead digest; the same samples measured by a conventional workflow (PepMap 50 cm, m/z 1, MS Amanda 2.0) and the advanced workflow (µPAC 110 cm, m/z 4 WWA, CHIMERYS); limma test.
B1: the binding result is on record as “binds”.
On the same count and under the same terms, then B2, with “binds”.
On the same count and under the same terms, then B3, with “binds”.
B4: the binding result is given as “binds”.

Another experiment has the same target. The description is as above. The source holds these as a separate data set.
On to Dpf2 (from UniProt Q61103 1-391), for which the binding result is given as “binds”.
Baz2b (from UniProt A2AUY4 1-2123): the binding entry was “binds”.
Regarding “Arid1a (BAF250a) (from UniProt A2BH40 1-2283)”, the binding entry was “binds”.
Turning to Baz2a (from UniProt Q91YE5 1-1889), the binding result is “binds”.
On the same count and under the same terms, for Cecr2 (from UniProt E9Q2Z1 1-1453) the value was “binds”.
Still for that read-out and setting: then Smarce1 (from UniProt O54941 1-411), with “binds”.
